At least one peptide structure holds a part that was inferred or is arguable (an end, a ring closure or a residue). Where no end group is shown, it is not given here.
Key:
Type in all cases: cell-based
[1] = test system: Human aortic endothelial cells (HAEC); test: CD154-induced ICAM-1 upregulation in HAEC; conditions: first generation peptides
[2] = test system: Human aortic endothelial cells (HAEC); test: CD154-induced tissue factor production in HAEC; conditions: first generation peptides
[3] = test system: Human aortic endothelial cells (HAEC); test: CD154-induced VCAM-1 upregulation in HAEC transduced with wild-type CD40 (FACS); conditions: 200 μM
Method: FIGS. 2A-D are a series of graphs showing the induction of VCAM-1 (FIG. 2A), ICAM-1 (FIG. 2B), MCP-1 (FIG. 2C), and tissue factor (FIG. 2D) expression by TRAFs. Human aortic endothelial cells (HAEC) transduced with empty EGFP-encoding retroviral vector (MIEG3) or retroviral vector that encoded either wild type CD40 (wt CD40), CD40 with a mutation that prevents recruitment of TRAF2 and 3 (ΔT2, 3), recruitment of TRAF6 (ΔT6), or recruitment of TRAF2, 3, and 6 (ΔT2, 3, and 6) were incubated with or without CD154. VCAM-1, ICAM-1, and tissue factor were assessed by FACS on transduced (EGFP+) cells. cMFI=corrected Mean Fluorescence Intensity. MCP-1 was measured by ELISA (N=3).
FIGS. 3A-B are a series of graphs showing the effects cell-permeable polypeptides that block CD40-TRAF interactions (T2,3BP and T6BP) on upregulation of VCAM-1 and MCP-1 in HAEC. HAEC were transduced with retroviral vectors encoding wild-type CD40 and incubated with or without CD154. HAEC were pre-treated with either control, TRAF2,3 blocking peptide (T2,3BP), or TRAF6 blocking peptide (T6BP) (200 μM) (N=2).
FIG. 5 is a graph showing the effects of second generation TRAF2, 3 blocking peptide on VCAM-1 upregulation in HAEC.
CD40 activates a variety of signaling cascades. […] Next, we determined if preventing the function of the TRAF2,3 binding site affects adhesion molecule upregulation. […]

[4] = test system: Human aortic endothelial cells (HAEC); test: CD154-induced MCP-1 secretion by HAEC (ELISA); conditions: 200 μM
[5] = first generation peptides, HAEC
[6] = first generation peptides (K-FGF transduction domain), HAEC with wt CD40, n=2, p<0.01, one figure printed for VCAM-1 and MCP-1

| Sequence | ICAM-1 upregulation in response to CD154 [1] | tissue factor production in response to CD154 [2] | effect on VCAM-1 upregulation in response to CD154 [3, 5] | effect on MCP-1 secretion in response to CD154 [4, 5] | inhibition in VCAM-1 upregulation in response to CD154 [3, 6] [%] | inhibition in MCP-1 secretion in response to CD154 [4, 6] [%] |
| --- | --- | --- | --- | --- | --- | --- |
| AAVALLPAVLLALLAPAPHPKQEPQEIDFPDD [SEQ ID NO: 2, AAVALLPAVLLALLAP APHPKQEPQEIDFPDD] | marked inhibition | marked inhibition | inhibited | inhibited |  |  |
| AAVALLPAVLLALLAPSNTAAPVQETLHG [SEQ ID NO: 1, AAVALLPAVLLALLAP SNTAAPVQETLHG] | marked inhibition | marked inhibition |  |  | 71 | 71 |

Reference: US12319726B2, “Method for treating CD40-mediated diseases” (CASE WESTERN RESERVE UNIVERSITY, priority 2008, dated 2025)
